Source: publication PMC8015226
Results are given in words; binding and its absence hold for the method and conditions named. In cells and extracts the contact can be indirect. Some entries that bind do so weakly or less than the wild type.

Sequences of proteins named here, by UniProt entry; tags and fusion partners are left off.
UniProt Q92878: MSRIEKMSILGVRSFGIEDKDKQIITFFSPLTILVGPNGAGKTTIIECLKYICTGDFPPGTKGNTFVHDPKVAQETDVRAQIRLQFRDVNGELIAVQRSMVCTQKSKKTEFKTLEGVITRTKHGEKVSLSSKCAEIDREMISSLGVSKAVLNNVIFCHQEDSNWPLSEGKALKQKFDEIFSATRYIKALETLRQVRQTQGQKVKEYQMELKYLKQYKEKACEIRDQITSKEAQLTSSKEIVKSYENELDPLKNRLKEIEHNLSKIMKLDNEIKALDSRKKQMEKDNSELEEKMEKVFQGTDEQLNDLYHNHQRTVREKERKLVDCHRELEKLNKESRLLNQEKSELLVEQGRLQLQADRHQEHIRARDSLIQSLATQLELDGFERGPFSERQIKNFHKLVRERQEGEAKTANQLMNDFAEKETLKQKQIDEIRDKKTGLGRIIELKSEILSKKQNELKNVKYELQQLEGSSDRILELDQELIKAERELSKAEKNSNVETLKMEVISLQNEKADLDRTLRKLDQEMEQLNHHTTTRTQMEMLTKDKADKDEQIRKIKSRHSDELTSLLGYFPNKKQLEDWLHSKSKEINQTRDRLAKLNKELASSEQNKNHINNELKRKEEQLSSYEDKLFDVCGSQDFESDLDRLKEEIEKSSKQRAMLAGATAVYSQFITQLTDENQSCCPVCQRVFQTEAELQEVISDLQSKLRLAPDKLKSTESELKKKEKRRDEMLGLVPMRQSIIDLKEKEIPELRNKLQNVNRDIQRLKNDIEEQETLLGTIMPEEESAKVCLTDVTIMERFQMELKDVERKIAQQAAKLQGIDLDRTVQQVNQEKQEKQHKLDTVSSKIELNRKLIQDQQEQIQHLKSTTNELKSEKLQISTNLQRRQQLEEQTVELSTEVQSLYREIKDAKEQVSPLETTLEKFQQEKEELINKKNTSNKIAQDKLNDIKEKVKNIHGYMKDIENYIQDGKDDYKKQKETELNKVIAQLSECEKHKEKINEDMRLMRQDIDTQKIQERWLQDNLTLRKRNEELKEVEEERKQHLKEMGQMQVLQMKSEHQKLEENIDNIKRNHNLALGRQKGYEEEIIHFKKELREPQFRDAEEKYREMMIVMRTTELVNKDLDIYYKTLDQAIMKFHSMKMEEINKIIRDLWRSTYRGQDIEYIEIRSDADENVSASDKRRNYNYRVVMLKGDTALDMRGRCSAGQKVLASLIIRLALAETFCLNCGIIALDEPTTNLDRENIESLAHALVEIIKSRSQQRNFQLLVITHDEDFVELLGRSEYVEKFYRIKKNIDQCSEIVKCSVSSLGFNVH

Target: RAD50 (human (endogenous in 293T)) (UniProt Q92878)
Assay: co-IP; RAD50 co-immunoprecipitation from HEK293T lysate (50 mM Tris-HCl pH 7.5, 150 mM NaCl, 0.5% NP-40, 5 mM MgCl2, 5% glycerol) with Benzonase, 4°C; antibody on Protein G Dynabeads; cells mock treated with DMSO (for NBS1 and MRE11 also cells treated with 100 μM mirin, 2.5 h); western blot

B1: DROSHA (protein, UniProt Q9NRR4 1-1374)
chain: MMQGNTCHRMSFHPGRGCPRGRGGHGARPSAPSFRPQNLRLLHPQQPPVQYQYEPPSAPSTTFSNSPAPNFLPPRPDFVPFPPPMPPSAQGPLPPCPIRPPFPNHQMRHPFPVPPCFPPMPPPMPCPNNPPVPGAPPGQGTFPFMMPPPSMPHPPPPPVMPQQVNYQYPPGYSHHNFPPPSFNSFQNNPSSFLPSANNSSSPHFRHLPPYPLPKAPSERRSPERLKHYDDHRHRDHSHGRGERHRSLDRRERGRSPDRRRQDSRYRSDYDRGRTPSRHRSYERSRERERERHRHRDNRRSPSLERSYKKEYKRSGRSYGLSVVPEPAGCTPELPGEIIKNTDSWAPPLEIVNHRSPSREKKRARWEEEKDRWSDNQSSGKDKNYTSIKEKEPEETMPDKNEEEEEELLKPVWIRCTHSENYYSSDPMDQVGDSTVVGTSRLRDLYDKFEEELGSRQEKAKAARPPWEPPKTKLDEDLESSSESECESDEDSTCSSSSDSEVFDVIAEIKRKKAHPDRLHDELWYNDPGQMNDGPLCKCSAKARRTGIRHSIYPGEEAIKPCRPMTNNAGRLFHYRITVSPPTNFLTDRPTVIEYDDHEYIFEGFSMFAHAPLTNIPLCKVIRFNIDYTIHFIEEMMPENFCVKGLELFSLFLFRDILELYDWNLKGPLFEDSPPCCPRFHFMPRFVRFLPDGGKEVLSMHQILLYLLRCSKALVPEEEIANMLQWEELEWQKYAEECKGMIVTNPGTKPSSVRIDQLDREQFNPDVITFPIIVHFGIRPAQLSYAGDPQYQKLWKSYVKLRHLLANSPKVKQTDKQKLAQREEALQKIRQKNTMRREVTVELSSQGFWKTGIRSDVCQHAMMLPVLTHHIRYHQCLMHLDKLIGYTFQDRCLLQLAMTHPSHHLNFGMNPDHARNSLSNCGIRQPKYGDRKVHHMHMRKKGINTLINIMSRLGQDDPTPSRINHNERLEFLGDAVVEFLTSVHLYYLFPSLEEGGLATYRTAIVQNQHLAMLAKKLELDRFMLYAHGPDLCRESDLRHAMANCFEALIGAVYLEGSLEEAKQLFGRLLFNDPDLREVWLNYPLHPLQLQEPNTDRQLIETSPVLQKLTEFEEAIGVIFTHVRLLARAFTLRTVGFNHLTLGHNQRMEFLGDSIMQLVATEYLFIHFPDHHEGHLTLLRSSLVNNRTQAKVAEELGMQEYAITNDKTKRPVALRTKTLADLLESFIAALYIDKDLEYVHTFMNVCFFPRLKEFILNQDWNDPKSQLQQCCLTLRTEGKEPDIPLYKTLQTVGPSHARTYTVAVYFKGERIGCGKGPSIQQAEMGAAMDALEKYNFPQMAHQKRFIERKYRQELKEMRWEREHQEREPDETEDIKK
- binding: binds
